# According to PubChem BioAssay AID504834 (National Center for Advancing Translational Sciences (NCATS), 2011):
# Hit rate of the full screen: of about 320,000 compounds, about 22,000 (6.9%) were called active. Inconclusive results, whose numbers are uncertain, are shown with a selection of clear calls. The call rests on the fitted dose curve; in most records, active means well fitted inhibition curve with a large enough effect; inconclusive means small, poorly fitted or top-dose-only effect, or another doubt; inactive means no such curve, though single readings can be large or run the other way. Where the call is inconclusive, the potency comes from a doubtful curve fit.
# Test: Primary qHTS for delayed death inhibitors of the malarial parasite plastid, 96 hour incubation
# Details: P. falciparum luciferase reporter growth; series mostly up to 28.7 µM; activity change, negative = inhibition: at the top concentration
# How it was run: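 Compounds incubated with erythrocytes infected by luciferase-expressing P. falciparum (2% hematocrit, 0.05% parasitemia final) for 96 hours, 37 C in 5% CO2. Growth inhibition scored as decreased luciferase luminescence.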
# On the % scale 0 is the no-effect control and ±100 the full control effect; potency means the concentration at half of the fitted maximal effect.
SMILES,"activity change, negative = inhibition",Potency
CCCCCCCN1N=C(C)C(C(=O)c2ccccc2)C1=O (configuration not stated),inactive: 35.5%,
CSCCC(C(=O)N(C)CC(=O)Nc1cccc(F)c1)N1C(=O)c2ccccc2C1=O (configuration not stated),,"inconclusive: 18.5 µM [inhibitor, single point]"
CC(C)c1ccc(N(CC(=O)NCc2cccnc2)S(=O)(=O)c2ccccc2)cc1,inactive: 4.34%,
COc1ccc(OC)c(S(=O)(=O)N2CCC(C(=O)NCCc3ccccc3)CC2)c1,,"inconclusive: 0.828 µM [inhibitor, full curve, poor fit]"
Cc1sc2nc(CSCC(=O)NC3CCCCC3)[nH]c(=O)c2c1C,inactive: -4.04%,
COC1CC2CCC(C)[C@](O)(O2)C(=O)C(=O)N2CCCCC2C(=O)OC(C(C)CC2CCC(O)C(OC)C2)CC(=O)C(C)/C=C(/C)C(O)C(OC)C(=O)C(C)CC(C)C=CC=C/C=C\1C (some centres not stated),,active: 1.9 µM
CCOc1ccccc1Oc1cn[nH]c1-c1ccc(OC)cc1O,,"inconclusive: 10.4 µM [inhibitor, single point]"
CC(C)(C)C(=O)c1cn(CC(=O)NCc2ccc3c(c2)OCO3)c2ccccc12,,"inconclusive: 13.1 µM [inhibitor, partial curve, poor fit]"
Cn1c(=O)n(C)c2cc(/C=N/NC(=O)c3ccc(Cl)cc3Cl)ccc21,inactive: 0.319%,
Cc1ccc(-n2nc(C)cc2NC(=O)COc2cc(C)cc3oc(=O)c4c(c23)CCC4)cc1,,active: 9.28 µM
Cc1ccc(C)c(S(=O)(=O)Nc2ccc(C(=O)NCCCN3CCCC3=O)cc2)c1,,"inconclusive: 10.4 µM [inhibitor, partial curve, poor fit]"
CC(=O)c1cc(CN2CCN(C(C)C)C(CCO)C2)cs1 (configuration not stated),,"inconclusive: 14.7 µM [inhibitor, single point]"
NNC(=O)c1cccn(Cc2ccc(Cl)cc2Cl)c1=O,,"inconclusive: 9.28 µM [inhibitor, partial curve, poor fit]"
COc1ccc(CCNC(=O)C(=O)NCCOc2ccccc2)cc1OC,inactive: -5.78%,
COc1cccc(NC(=O)CCS(=O)(=O)c2ccc3c(c2)oc(=O)n3C)c1,,"inconclusive: 11.7 µM [inhibitor, single point]"
COc1cccc(NC(=O)Nc2ccc3c(c2)nnn3C)c1,,"inconclusive: 18.5 µM [inhibitor, single point]"
CCOc1cc(/C=C(\C#N)c2[nH]nc(N)c2C#N)ccc1O,,"inconclusive: 10.4 µM [inhibitor, single point]"
CCn1cnc2sc(C(=O)Oc3cccc(C)c3)c(C)c2c1=O,,"inconclusive: 0.329 µM [inhibitor, full curve, poor fit]"
Cc1ccc(SCC2=NN(c3nc(C)cc(C)n3)C(=O)C2)cc1,,"inconclusive: 0.465 µM [inhibitor, full curve, poor fit]"
COC(=O)C1(C)NC(c2ccc(F)cc2)C2C(=O)N(c3ccc(C)cc3)C(=O)C21 (configuration not stated),,active: 2.33 µM
O=C(NC1CCCCC1)C1CC(=O)N(CCc2ccc(F)cc2)C1 (configuration not stated),inactive: -13.9%,
COc1cc(/C=C(\NC(C)=O)C(=O)Nc2cccc(O)c2)ccc1OC(C)=O,,"inconclusive: 18.5 µM [inhibitor, single point]"
C/C(=N\NC(=O)C(=O)Nc1cc(C)ccc1C)c1ccncc1,inactive: 2.45%,
O=C(COC(=O)CNC(=O)C1CCCCC1)Nc1cccc(F)c1,inactive: 9.28%,

SMILES,"activity change, negative = inhibition",Potency
COc1ccc(C(=O)N2CCC(C(=O)Nc3cccc(C)c3)CC2)cc1OC,,"inconclusive: 18.5 µM [inhibitor, single point]"
COc1ccc(-c2c(NC(=O)c3ccco3)oc3ccccc3c2=O)cc1,inactive: 75.9%,
Cc1ccc(C(=O)Nn2c(C)nc3ccccc3c2=O)cc1C,,active: 13.1 µM
Cn1nnnc1SCC(=O)c1cccs1,inactive: 31.2%,
O=C(O)c1cc2nc3c(c(C(F)(F)F)n2n1)CCc1ccccc1-3,inactive: -29%,
COc1cc(SC)ccc1C(=O)NCc1ccc(C)cc1,,"inconclusive: 2.33 µM [inhibitor, full curve, poor fit]"
O=C1CC(c2cccc([N+](=O)[O-])c2)c2ccc3ccccc3c2N1 (configuration not stated),inactive: 0%,
O=C(COC(=O)c1ccc(CSc2ccc(Cl)cc2)cc1)Nc1ccccc1,inactive: 38.3%,
Nc1ccc(S(=O)(=O)N2CCCCC2c2cccnc2)cc1 (configuration not stated),,"inconclusive: 8.28 µM [inhibitor, partial curve, poor fit]"
Nc1ccccc1C(=O)O,,"inconclusive: 1.9 µM [inhibitor, partial curve, poor fit]"
O=C(O)c1cccc(-c2ccc3c(c2)OCO3)c1,,active: 3.7 µM
Cc1ccc(CSCc2nc3ccccc3[nH]2)cc1,,"inconclusive: 2.62 µM [inhibitor, full curve, poor fit]"
COc1ccc(/C=N\Nc2ccc([N+](=O)[O-])cc2)c(C(=O)O)c1OC,,"inconclusive: 1.31 µM [inhibitor, full curve, poor fit]"
CC1CCN(CCCNC(=O)c2nn(C)c3c2CS(=O)(=O)c2ccccc2-3)CC1,inactive: -15.4%,
CCCCCCn1c(COc2ccccc2F)nnc1SCC(=O)N1c2ccccc2NC(=O)C1(C)C,,active: 8.28 µM
Fc1ccc(Nc2ccnc(Nc3ccc(F)cc3)n2)cc1,,"inconclusive: 3.29 µM [inhibitor, full curve, poor fit]"
CCCCCCCCCC(=O)N/N=C(\C)c1cccnc1,,"inconclusive: 18.5 µM [inhibitor, single point]"
CCOc1ccccc1OCCCC(=O)Nc1sccc1C(N)=O,,"inconclusive: 5.86 µM [inhibitor, partial curve, poor fit]"
CSC1=C(C#N)C(CC(C)C)C(C(C)=O)=C(C)N1 (configuration not stated),inactive: -5.98%,
O=C(NC(=S)N1CCCCC1c1cccnc1)c1ccccc1 (configuration not stated),,"inconclusive: 20.8 µM [inhibitor, partial curve, poor fit]"
O=C(COc1ccc(F)cc1)Nc1nc2c(s1)CCCC2,,"inconclusive: 10.4 µM [inhibitor, single point]"
O=C(O)CC1(CC(=O)NCc2cc(F)cc3c2OCOC3)CCCCC1,,"inconclusive: 0.0828 µM [inhibitor, full curve, poor fit]"
CCc1nn(C(C)C(=O)NCCN2CCN(c3cccc(C)c3C)CC2)c(=O)c2cc3occc3n12 (configuration not stated),inactive: 0%,
O=C(Nc1cccnc1)c1ccccc1-c1nc(-c2ccccc2F)no1,,"inconclusive: 5.22 µM [inhibitor, single point]"

SMILES,"activity change, negative = inhibition",Potency
CC(=O)N1c2ccc(S(=O)(=O)NCCc3ccccc3)cc2CC1C (configuration not stated),inactive: 59.2%,
O=C(CC12CC3CC(CC(C3)C1)C2)NC(=S)Nc1ccc(CN2CCOCC2)cc1,inactive: 22.7%,
COc1cc(C(=O)N2CCc3ccccc32)ccc1OCc1c(C)noc1C,,"inconclusive: 18.5 µM [inhibitor, single point]"
O=c1[nH]c(CN2CCN(Cc3ccccc3)CC2)nc2scc(-c3ccccc3)c12,inactive: -11.4%,
CCOc1ccc(NS(=O)(=O)c2ccc(C(=O)N3CCCC3)cc2)cc1,,"inconclusive: 10.4 µM [inhibitor, partial curve]"
O=C(CCC(=O)c1ccc(F)cc1)OC1CCOC1=O (configuration not stated),inactive: -13.8%,
CCCCNC(=O)Cn1c(=O)c2c(ncn2CCC(C)C)n(Cc2ccccc2)c1=O,,active: 2.33 µM
Cc1onc(-c2ccccc2Cl)c1C(=O)NCc1ccc2c(c1)cc(C)n2C,,"inconclusive: 8.28 µM [inhibitor, partial curve]"
COc1ccccc1NC(=O)c1cc[n+]([O-])cc1,,"inconclusive: 18.5 µM [inhibitor, single point]"
S=C(NCC1CCCO1)Nc1ccc(Cl)cc1Cl (configuration not stated),,"inconclusive: 18.5 µM [inhibitor, single point]"
COc1ccc(-n2nc(C(=O)NCC(=O)N3CCCCCC3)c3ccccc3c2=O)c(OC)c1,,"inconclusive: 7.38 µM [inhibitor, partial curve]"
O=C(O)C1CC=CCC1C(=O)Nc1cccc(Cl)c1 (configuration not stated),inactive: 16.7%,
Cc1cc(C)cc(OCCn2c(C3CC(=O)N(c4ccccc4Cl)C3)nc3ccccc32)c1 (configuration not stated),,"inconclusive: 18.5 µM [inhibitor, single point]"
CCOc1ccc(N(CC(=O)Nc2cccc(N(C)S(C)(=O)=O)c2)S(=O)(=O)c2ccccc2)cc1,,"inconclusive: 18.5 µM [inhibitor, single point]"
O=C(NCCCNCc1ccccc1)c1ccncc1,,"inconclusive: 0.0029 µM [inhibitor, full curve, poor fit]"
COc1ccc(C(=O)N/C(=C\c2cccc3ccccc23)C(=O)N2CCN(C)CC2)cc1,,"inconclusive: 2.62 µM [inhibitor, single point]"
CC1CCCC(NC(=O)NC(=O)COC(=O)c2ccc(O)cc2O)C1C (configuration not stated),,"inconclusive: 18.5 µM [inhibitor, single point]"
Cc1nc(C(Cl)(Cl)Cl)nc2[nH]ccc(=O)c12,,"inconclusive: 18.5 µM [inhibitor, partial curve, poor fit]"
CC12CCC(C(=O)NCc3ccc(F)cc3)(OC1=O)C2(C)C (configuration not stated),inactive: -1.29%,
CC1CCN(C(=O)CSCC(=O)O)CC1,inactive: 15.2%,
COc1cc(/C=N/NC(=O)c2ccccn2)ccc1OC(=O)c1ccccc1Br,,active: 2.08 µM
Cc1cccc2sc(N(CCCN(C)C)C(=O)c3cc4ccccc4oc3=O)nc12,,"inconclusive: 16.5 µM [inhibitor, single point]"
O=C(c1cc(F)ccc1F)C1CCCN(C(=O)c2cccs2)C1 (configuration not stated),,"inconclusive: 18.5 µM [inhibitor, single point]"
Oc1ccc(-[n+]2c(-c3ccccc3)cc(-c3ccccc3)cc2-c2ccccc2)cc1,,active: 0.131 µM

# Part of the list above in order of formula weight, low to high.
SMILES,"activity change, negative = inhibition",Potency
O=C(O)c1cccc(-c2ccc3c(c2)OCO3)c1,,active: 3.7 µM
COc1ccccc1NC(=O)c1cc[n+]([O-])cc1,,"inconclusive: 18.5 µM [inhibitor, single point]"
CCCCCCCCCC(=O)N/N=C(\C)c1cccnc1,,"inconclusive: 18.5 µM [inhibitor, single point]"
Fc1ccc(Nc2ccnc(Nc3ccc(F)cc3)n2)cc1,,"inconclusive: 3.29 µM [inhibitor, full curve, poor fit]"
CCCCCCCN1N=C(C)C(C(=O)c2ccccc2)C1=O (configuration not stated),inactive: 35.5%,
CC12CCC(C(=O)NCc3ccc(F)cc3)(OC1=O)C2(C)C (configuration not stated),inactive: -1.29%,
Cc1ccc(C(=O)Nn2c(C)nc3ccccc3c2=O)cc1C,,active: 13.1 µM
NNC(=O)c1cccn(Cc2ccc(Cl)cc2Cl)c1=O,,"inconclusive: 9.28 µM [inhibitor, partial curve, poor fit]"
O=C1CC(c2cccc([N+](=O)[O-])c2)c2ccc3ccccc3c2N1 (configuration not stated),inactive: 0%,
O=C(NC(=S)N1CCCCC1c1cccnc1)c1ccccc1 (configuration not stated),,"inconclusive: 20.8 µM [inhibitor, partial curve, poor fit]"
O=C(COC(=O)CNC(=O)C1CCCCC1)Nc1cccc(F)c1,inactive: 9.28%,
CC1CCCC(NC(=O)NC(=O)COC(=O)c2ccc(O)cc2O)C1C (configuration not stated),,"inconclusive: 18.5 µM [inhibitor, single point]"
O=C(O)CC1(CC(=O)NCc2cc(F)cc3c2OCOC3)CCCCC1,,"inconclusive: 0.0828 µM [inhibitor, full curve, poor fit]"
COc1ccc(CCNC(=O)C(=O)NCCOc2ccccc2)cc1OC,inactive: -5.78%,
Cc1onc(-c2ccccc2Cl)c1C(=O)NCc1ccc2c(c1)cc(C)n2C,,"inconclusive: 8.28 µM [inhibitor, partial curve]"
COC(=O)C1(C)NC(c2ccc(F)cc2)C2C(=O)N(c3ccc(C)cc3)C(=O)C21 (configuration not stated),,active: 2.33 µM
Oc1ccc(-[n+]2c(-c3ccccc3)cc(-c3ccccc3)cc2-c2ccccc2)cc1,,active: 0.131 µM
CC1CCN(CCCNC(=O)c2nn(C)c3c2CS(=O)(=O)c2ccccc2-3)CC1,inactive: -15.4%,
Cc1ccc(C)c(S(=O)(=O)Nc2ccc(C(=O)NCCCN3CCCC3=O)cc2)c1,,"inconclusive: 10.4 µM [inhibitor, partial curve, poor fit]"
COc1ccc(OC)c(S(=O)(=O)N2CCC(C(=O)NCCc3ccccc3)CC2)c1,,"inconclusive: 0.828 µM [inhibitor, full curve, poor fit]"
CSCCC(C(=O)N(C)CC(=O)Nc1cccc(F)c1)N1C(=O)c2ccccc2C1=O (configuration not stated),,"inconclusive: 18.5 µM [inhibitor, single point]"
CCOc1ccc(N(CC(=O)Nc2cccc(N(C)S(C)(=O)=O)c2)S(=O)(=O)c2ccccc2)cc1,,"inconclusive: 18.5 µM [inhibitor, single point]"
COC1CC2CCC(C)[C@](O)(O2)C(=O)C(=O)N2CCCCC2C(=O)OC(C(C)CC2CCC(O)C(OC)C2)CC(=O)C(C)/C=C(/C)C(O)C(OC)C(=O)C(C)CC(C)C=CC=C/C=C\1C (some centres not stated),,active: 1.9 µM
